These results are taken from the supplement of paper PMC11732987, “Enantioselective OTUD7B fragment discovery through chemoproteomics screening and high-throughput optimisation” (Communications Chemistry, 2025).

Chains of the proteins cited; added tags and fusions are not shown. Lines headed by an entry give the natural chain unless they say otherwise; changes in a name come on top. Residues count along the entry.
UniProt O75127, 679-700: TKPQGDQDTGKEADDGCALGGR
UniProt Q12923: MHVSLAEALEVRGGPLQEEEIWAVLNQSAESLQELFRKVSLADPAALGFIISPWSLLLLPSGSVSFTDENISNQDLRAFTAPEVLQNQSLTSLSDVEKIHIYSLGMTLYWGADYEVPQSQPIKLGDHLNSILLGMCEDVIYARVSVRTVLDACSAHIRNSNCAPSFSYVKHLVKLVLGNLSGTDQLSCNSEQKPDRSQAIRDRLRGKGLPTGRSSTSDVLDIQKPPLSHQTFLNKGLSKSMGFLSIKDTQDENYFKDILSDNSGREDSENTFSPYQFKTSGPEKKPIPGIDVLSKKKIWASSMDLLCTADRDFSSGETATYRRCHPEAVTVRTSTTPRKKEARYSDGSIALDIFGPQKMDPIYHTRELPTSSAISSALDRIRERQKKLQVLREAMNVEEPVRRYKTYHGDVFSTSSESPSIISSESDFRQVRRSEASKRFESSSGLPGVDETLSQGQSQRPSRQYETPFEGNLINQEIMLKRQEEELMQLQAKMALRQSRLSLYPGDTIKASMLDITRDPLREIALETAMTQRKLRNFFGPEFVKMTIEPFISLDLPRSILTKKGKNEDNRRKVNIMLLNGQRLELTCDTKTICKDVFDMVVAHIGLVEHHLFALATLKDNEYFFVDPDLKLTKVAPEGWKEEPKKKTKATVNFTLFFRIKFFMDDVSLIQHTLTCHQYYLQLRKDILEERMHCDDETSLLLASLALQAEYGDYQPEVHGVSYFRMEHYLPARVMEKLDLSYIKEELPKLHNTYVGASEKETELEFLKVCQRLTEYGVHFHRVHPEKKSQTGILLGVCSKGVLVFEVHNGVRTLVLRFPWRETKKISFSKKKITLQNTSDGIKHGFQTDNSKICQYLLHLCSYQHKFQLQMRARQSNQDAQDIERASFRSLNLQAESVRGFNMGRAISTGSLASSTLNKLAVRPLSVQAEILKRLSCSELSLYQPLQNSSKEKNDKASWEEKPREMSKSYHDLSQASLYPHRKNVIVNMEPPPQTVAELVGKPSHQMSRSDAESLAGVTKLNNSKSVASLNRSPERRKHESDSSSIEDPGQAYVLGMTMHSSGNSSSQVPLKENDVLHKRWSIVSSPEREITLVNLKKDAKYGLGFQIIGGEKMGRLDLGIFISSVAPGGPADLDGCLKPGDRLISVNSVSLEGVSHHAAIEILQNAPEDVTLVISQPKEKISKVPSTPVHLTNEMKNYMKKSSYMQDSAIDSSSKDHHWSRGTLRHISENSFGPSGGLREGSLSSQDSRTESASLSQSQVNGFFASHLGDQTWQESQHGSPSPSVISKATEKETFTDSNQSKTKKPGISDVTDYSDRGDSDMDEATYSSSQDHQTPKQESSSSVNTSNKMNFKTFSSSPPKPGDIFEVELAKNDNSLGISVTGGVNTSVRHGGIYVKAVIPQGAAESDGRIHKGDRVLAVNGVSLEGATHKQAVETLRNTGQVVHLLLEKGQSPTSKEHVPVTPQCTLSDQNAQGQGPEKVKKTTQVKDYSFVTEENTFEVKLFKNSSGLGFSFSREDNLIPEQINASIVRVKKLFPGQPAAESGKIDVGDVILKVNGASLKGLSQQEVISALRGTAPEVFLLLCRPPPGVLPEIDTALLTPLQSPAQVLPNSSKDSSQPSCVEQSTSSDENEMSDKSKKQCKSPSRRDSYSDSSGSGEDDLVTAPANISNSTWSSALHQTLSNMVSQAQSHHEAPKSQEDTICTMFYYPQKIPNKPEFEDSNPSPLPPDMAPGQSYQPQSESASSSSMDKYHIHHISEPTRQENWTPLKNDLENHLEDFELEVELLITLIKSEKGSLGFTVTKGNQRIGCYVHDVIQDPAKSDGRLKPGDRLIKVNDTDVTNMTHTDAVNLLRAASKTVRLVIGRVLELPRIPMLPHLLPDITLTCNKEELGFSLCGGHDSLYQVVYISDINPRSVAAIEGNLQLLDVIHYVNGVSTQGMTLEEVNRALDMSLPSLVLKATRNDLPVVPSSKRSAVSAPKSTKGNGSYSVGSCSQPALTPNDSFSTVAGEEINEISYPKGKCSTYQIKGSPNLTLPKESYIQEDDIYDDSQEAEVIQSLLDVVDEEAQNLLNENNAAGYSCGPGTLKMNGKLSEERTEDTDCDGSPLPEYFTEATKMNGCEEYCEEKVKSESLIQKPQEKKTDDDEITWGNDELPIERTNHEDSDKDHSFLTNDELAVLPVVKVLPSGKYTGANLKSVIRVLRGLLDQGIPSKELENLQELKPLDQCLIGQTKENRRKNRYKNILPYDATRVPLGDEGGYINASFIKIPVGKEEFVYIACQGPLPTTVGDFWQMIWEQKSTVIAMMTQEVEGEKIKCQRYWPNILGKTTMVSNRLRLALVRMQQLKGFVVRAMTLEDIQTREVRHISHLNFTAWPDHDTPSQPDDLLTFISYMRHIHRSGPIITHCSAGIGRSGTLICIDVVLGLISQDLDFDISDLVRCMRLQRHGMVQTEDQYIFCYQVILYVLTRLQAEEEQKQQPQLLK
UniProt Q9UL46, whole entry, looked up: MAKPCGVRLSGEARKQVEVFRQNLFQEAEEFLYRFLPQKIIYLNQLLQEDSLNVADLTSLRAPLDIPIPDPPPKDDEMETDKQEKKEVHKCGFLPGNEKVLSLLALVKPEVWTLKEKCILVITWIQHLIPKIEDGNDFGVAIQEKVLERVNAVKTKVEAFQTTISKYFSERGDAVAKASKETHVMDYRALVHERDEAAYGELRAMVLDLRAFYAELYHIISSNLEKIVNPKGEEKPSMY
UniProt Q9Y617, 275-298: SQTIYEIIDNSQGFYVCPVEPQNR
UniProt Q8WV60: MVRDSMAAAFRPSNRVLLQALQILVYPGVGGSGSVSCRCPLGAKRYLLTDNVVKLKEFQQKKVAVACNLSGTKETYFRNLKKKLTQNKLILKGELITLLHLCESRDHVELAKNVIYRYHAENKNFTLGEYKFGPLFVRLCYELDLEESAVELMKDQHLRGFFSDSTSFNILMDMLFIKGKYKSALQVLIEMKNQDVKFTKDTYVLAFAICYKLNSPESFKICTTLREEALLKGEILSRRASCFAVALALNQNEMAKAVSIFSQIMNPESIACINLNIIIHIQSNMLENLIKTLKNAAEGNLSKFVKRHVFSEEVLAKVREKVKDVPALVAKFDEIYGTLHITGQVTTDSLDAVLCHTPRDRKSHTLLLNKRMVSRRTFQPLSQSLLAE
UniProt Q15678: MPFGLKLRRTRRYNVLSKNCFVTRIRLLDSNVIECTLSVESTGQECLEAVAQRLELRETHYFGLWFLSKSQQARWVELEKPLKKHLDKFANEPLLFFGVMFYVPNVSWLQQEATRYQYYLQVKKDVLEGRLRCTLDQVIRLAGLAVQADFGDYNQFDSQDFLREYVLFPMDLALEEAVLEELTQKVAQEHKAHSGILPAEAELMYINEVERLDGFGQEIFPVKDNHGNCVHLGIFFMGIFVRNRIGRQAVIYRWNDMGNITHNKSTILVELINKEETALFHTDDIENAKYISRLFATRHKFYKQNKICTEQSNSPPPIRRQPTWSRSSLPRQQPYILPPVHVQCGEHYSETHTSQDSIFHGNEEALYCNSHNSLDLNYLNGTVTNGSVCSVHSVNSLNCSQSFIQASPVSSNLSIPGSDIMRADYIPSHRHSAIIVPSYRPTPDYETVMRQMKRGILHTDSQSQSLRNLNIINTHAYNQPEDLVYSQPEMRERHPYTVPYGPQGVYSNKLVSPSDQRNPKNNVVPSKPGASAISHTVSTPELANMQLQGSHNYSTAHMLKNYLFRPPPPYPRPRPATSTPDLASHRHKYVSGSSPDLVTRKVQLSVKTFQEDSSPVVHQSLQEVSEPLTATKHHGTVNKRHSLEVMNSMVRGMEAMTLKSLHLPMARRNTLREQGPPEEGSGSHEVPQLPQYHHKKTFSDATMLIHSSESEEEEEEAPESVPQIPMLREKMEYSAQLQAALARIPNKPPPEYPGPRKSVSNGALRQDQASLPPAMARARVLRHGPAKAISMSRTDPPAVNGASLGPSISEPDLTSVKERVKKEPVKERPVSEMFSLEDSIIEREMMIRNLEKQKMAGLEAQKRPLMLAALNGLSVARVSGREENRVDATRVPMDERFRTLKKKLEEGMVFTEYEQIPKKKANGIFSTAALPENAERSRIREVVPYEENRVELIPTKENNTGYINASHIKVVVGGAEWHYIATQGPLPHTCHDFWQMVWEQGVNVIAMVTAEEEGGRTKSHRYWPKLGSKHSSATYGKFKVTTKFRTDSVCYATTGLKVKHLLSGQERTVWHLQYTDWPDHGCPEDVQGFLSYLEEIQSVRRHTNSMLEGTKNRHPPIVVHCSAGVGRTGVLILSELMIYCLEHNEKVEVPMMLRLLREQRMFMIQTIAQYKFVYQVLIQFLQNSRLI
UniProt Q7Z7A4: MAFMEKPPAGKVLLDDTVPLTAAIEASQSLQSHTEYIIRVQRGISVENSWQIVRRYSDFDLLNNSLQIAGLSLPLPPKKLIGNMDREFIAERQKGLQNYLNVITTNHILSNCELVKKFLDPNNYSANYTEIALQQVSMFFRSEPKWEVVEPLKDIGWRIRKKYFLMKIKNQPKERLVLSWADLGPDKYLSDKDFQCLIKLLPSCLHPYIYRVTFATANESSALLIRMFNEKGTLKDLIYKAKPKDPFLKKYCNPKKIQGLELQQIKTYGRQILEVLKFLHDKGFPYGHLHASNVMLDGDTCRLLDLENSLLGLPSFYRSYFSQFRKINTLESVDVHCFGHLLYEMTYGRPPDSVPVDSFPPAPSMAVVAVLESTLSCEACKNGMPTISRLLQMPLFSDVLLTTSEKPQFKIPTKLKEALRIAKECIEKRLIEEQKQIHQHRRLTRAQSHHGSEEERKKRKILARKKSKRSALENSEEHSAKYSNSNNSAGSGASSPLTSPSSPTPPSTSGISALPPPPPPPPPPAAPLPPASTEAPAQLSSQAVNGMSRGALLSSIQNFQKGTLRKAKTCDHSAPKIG
UniProt Q12974: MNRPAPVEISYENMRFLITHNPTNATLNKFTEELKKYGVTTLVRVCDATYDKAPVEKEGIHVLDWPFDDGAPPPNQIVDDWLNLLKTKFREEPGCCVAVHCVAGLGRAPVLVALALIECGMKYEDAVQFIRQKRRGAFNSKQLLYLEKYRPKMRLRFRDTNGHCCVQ
UniProt Q9NS91, 384-406: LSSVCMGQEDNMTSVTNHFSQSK
UniProt Q9UJ41, 172-192: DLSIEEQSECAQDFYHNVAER
UniProt Q14671: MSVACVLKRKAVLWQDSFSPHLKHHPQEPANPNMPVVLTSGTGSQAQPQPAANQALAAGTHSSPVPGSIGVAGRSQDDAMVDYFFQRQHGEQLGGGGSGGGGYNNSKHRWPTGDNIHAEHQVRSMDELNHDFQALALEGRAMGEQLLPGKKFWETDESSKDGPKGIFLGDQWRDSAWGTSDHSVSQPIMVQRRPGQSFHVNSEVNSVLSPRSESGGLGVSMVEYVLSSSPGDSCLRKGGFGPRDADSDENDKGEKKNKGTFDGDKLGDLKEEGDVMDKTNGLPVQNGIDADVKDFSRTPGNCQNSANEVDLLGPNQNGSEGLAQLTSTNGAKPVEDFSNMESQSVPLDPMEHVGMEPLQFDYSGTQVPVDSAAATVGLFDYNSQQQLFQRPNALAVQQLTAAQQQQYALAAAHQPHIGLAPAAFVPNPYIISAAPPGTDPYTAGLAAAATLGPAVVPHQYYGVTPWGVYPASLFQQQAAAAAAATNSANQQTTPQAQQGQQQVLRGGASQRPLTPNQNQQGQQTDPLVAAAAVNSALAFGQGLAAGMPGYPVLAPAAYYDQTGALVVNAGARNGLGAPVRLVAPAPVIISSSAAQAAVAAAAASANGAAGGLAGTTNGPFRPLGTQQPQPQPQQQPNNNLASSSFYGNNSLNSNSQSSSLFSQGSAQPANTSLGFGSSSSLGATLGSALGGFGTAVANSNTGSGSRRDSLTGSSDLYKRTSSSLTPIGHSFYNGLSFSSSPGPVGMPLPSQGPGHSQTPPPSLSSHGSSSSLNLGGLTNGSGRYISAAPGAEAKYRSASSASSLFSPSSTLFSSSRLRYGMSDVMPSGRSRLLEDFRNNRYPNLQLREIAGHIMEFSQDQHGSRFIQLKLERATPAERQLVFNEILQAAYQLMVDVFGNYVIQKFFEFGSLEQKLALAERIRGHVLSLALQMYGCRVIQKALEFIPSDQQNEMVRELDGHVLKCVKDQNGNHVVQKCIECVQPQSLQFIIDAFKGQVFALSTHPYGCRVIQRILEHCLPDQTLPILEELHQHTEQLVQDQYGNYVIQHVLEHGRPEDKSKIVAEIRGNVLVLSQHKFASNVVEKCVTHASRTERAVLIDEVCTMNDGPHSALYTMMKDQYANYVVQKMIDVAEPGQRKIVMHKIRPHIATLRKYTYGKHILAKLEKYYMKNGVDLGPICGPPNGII
UniProt Q7Z6M1, 233-253: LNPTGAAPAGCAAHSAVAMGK
UniProt Q5JS54: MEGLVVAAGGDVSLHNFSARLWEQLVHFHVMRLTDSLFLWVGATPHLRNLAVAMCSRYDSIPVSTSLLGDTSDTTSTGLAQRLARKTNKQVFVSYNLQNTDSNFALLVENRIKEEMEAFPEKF

This is one part of the list. The data scatter; read single values as rough.

Compound in experiment [1]: ClCC(=O)N[C@@H]1CCCc2ccccc12
Kind of experiment: log2 mean competition ratio of IA-DTB cysteine labelling (DMSO/compound) (log2 ratio); higher = stronger cysteine engagement by compound. The settings on record: treatment time: 4 h, cell line lysate: HEK293T. The protocol: (§1)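 IA-DTB competitive cysteine chemoproteomics in HEK293T RIPA lysate. Lysates were treated with compound 29 or 30 at 50 or 200 µM for 4 h, then IA-DTB (500 µM, 1 h), trypsin-digested, NeutrAvidin-enriched and analysed by diaPASEF. Competition ratio = intensity DMSO / intensity compound (n=4 treated, n=64 DMSO); binding: mean log2 CR ≥ 1 and p ≤ 0.05 plus QC filters. Target is the cysteine site.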

Compound in experiment [2]: ClCC(=O)N[C@H]1CCCc2ccccc12
Described as above. The settings on record: treatment time: 4 h, cell line lysate: HEK293T. The method, then: as §1

Take PTCD1 C695 (UniProt O75127): the “log2 mean competition ratio” value is -0.156 in experiment [1] (50 µM), -0.043 in experiment [1] (200 µM), -0.182 in experiment [2] (50 µM) and -0.0432 in experiment [2] (200 µM).

Regarding RAD54L2 C601 (UniProt Q9Y4B4), the “log2 mean competition ratio” value in experiment [1] (50 µM) is 0.184; in experiment [1] (200 µM) it was -0.17; in experiment [2] (50 µM), 0.328; in experiment [2] (200 µM), -0.0262.

For the target PWP2 C24 (UniProt Q15269), the “log2 mean competition ratio” value in experiment [1] (50 µM) is -0.14; in experiment [1] (200 µM) it was 0.0541; in experiment [2] (50 µM), 0.267; in experiment [2] (200 µM), -0.0781.

Take PTPN13 C1812 (UniProt Q12923): the “log2 mean competition ratio” value in experiment [1] (50 µM) was -0.224; in experiment [1] (200 µM), -0.179; in experiment [2] (50 µM), -0.391; in experiment [2] (200 µM) it was -0.0504.

Take RABGAP1 C969 (UniProt Q9Y3P9): the “log2 mean competition ratio” value in experiment [1] (50 µM) was -0.0682; in experiment [1] (200 µM) it was -0.0151; in experiment [2] (50 µM), 0.101; in experiment [2] (200 µM) it was 0.0411.

Turning to PSME2 C5 (UniProt Q9UL46), the “log2 mean competition ratio” value in experiment [1] (50 µM) is 0.0741; in experiment [1] (200 µM), 0.191; in experiment [2] (50 µM), 0.2; in experiment [2] (200 µM), 0.261.

As to PSMA3 C42, the “log2 mean competition ratio” value in experiment [1] (50 µM) was -0.0397; in experiment [1] (200 µM), 0.103; in experiment [2] (50 µM), -0.389; in experiment [2] (200 µM), 0.0231.

PSAT1 C291 (UniProt Q9Y617): the “log2 mean competition ratio” value was -0.249 in experiment [1] (50 µM), -0.133 in experiment [1] (200 µM), 0.027 in experiment [2] (50 µM) and -0.316 in experiment [2] (200 µM).

For PTCD2 C67 (UniProt Q8WV60), the “log2 mean competition ratio” value in experiment [1] (50 µM) is 0.0285; in experiment [1] (200 µM), -0.031; in experiment [2] (50 µM), 0.378; in experiment [2] (200 µM), -0.0437.

Take R3HDM1 C858 (UniProt Q15032+R3HDM1): the “log2 mean competition ratio” value in experiment [1] (50 µM) was -0.111; in experiment [1] (200 µM) it was 0.11; in experiment [2] (50 µM) it was 0.0326; in experiment [2] (200 µM), 0.255.

As to PTPN14 C133 (UniProt Q15678), the “log2 mean competition ratio” value in experiment [1] (50 µM) was 0.0319; in experiment [1] (200 µM), -0.0906; in experiment [2] (50 µM), -0.254; in experiment [2] (200 µM), -0.196.

PXK C570 (UniProt Q7Z7A4): the “log2 mean competition ratio” value in experiment [1] (50 µM) is -0.0124; in experiment [1] (200 µM), -0.271; in experiment [2] (50 µM), 0.1; in experiment [2] (200 µM) it was -0.0463.

Consider PTP4A2 C46 (UniProt Q12974), for which the “log2 mean competition ratio” value in experiment [1] (50 µM) was 0.2; in experiment [1] (200 µM) it was -0.000641; in experiment [2] (50 µM) it was 0.0854; in experiment [2] (200 µM), -0.0308.

In the case of RAD18 C388 (UniProt Q9NS91), the “log2 mean competition ratio” value in experiment [1] (50 µM) is 0.247; in experiment [1] (200 µM), 0.207; in experiment [2] (50 µM) it was -0.413; in experiment [2] (200 µM) it was 0.106.

In the case of PTPN13 C2408 (UniProt Q12923), the “log2 mean competition ratio” value in experiment [1] (50 µM) turned out to be 0.428; in experiment [1] (200 µM), 0.195; in experiment [2] (50 µM), 0.357; in experiment [2] (200 µM), 0.0616.

As for RABGEF1 C181 (UniProt Q9UJ41), the “log2 mean competition ratio” value is -0.0721 in experiment [1] (50 µM), 0.0544 in experiment [1] (200 µM), 0.616 in experiment [2] (50 µM) and -0.243 in experiment [2] (200 µM).

PSMC6 C170 (UniProt P62333): the “log2 mean competition ratio” value stood at 0.278 in experiment [1] (50 µM), 0.317 in experiment [1] (200 µM), 0.0385 in experiment [2] (50 µM) and 0.21 in experiment [2] (200 µM).

Take RABL6 C491 (UniProt Q3YEC7): the “log2 mean competition ratio” value is -0.211 in experiment [1] (50 µM), 0.321 in experiment [1] (200 µM), -0.417 in experiment [2] (50 µM) and 0.352 in experiment [2] (200 µM).

With RAB34 C19, the “log2 mean competition ratio” value in experiment [1] (50 µM) was -0.154; in experiment [1] (200 µM) it was -0.143; in experiment [2] (50 µM), -0.273; in experiment [2] (200 µM) it was -0.109.

Regarding RAB39A C149, the “log2 mean competition ratio” value was -0.193 in experiment [1] (50 µM), -0.144 in experiment [1] (200 µM), 0.263 in experiment [2] (50 µM) and 0.0968 in experiment [2] (200 µM).

With PUM1 C5 (UniProt Q14671), the “log2 mean competition ratio” value was 0.0674 in experiment [1] (50 µM), 0.187 in experiment [1] (200 µM), 0.241 in experiment [2] (50 µM) and 0.375 in experiment [2] (200 µM).

With PTDSS1 C4 (UniProt P48651), the “log2 mean competition ratio” value was 0.139 in experiment [1] (50 µM), 0.183 in experiment [1] (200 µM), -0.039 in experiment [2] (50 µM) and 0.421 in experiment [2] (200 µM).

RABEPK C115 (UniProt Q7Z6M1): the “log2 mean competition ratio” value in experiment [1] (50 µM) was -0.0409; in experiment [1] (200 µM), -0.0617; in experiment [2] (50 µM), 0.247; in experiment [2] (200 µM), -0.11.

As for RABEPK C243 (UniProt Q7Z6M1), the “log2 mean competition ratio” value in experiment [1] (50 µM) is 0.088; in experiment [1] (200 µM) it was -0.585; in experiment [2] (50 µM) it was -0.027; in experiment [2] (200 µM), -0.705.

On to PSMG4 C55 (UniProt Q5JS54), for which the “log2 mean competition ratio” value in experiment [1] (50 µM) is 0.279; in experiment [1] (200 µM) it was -0.292; in experiment [2] (50 µM) it was 0.0782; in experiment [2] (200 µM), -0.283.
